Reference: PubChem BioAssay AID1259415 (National Center for Advancing Translational Sciences (NCATS), 2018)
Where “and” joins values, the source holds several entries; their conditions need not be identical. Identical values can stand only once. Screen size: about 410,000 compounds; about 18,000 (4.4%) were called active. Inconclusive results, whose numbers are uncertain, are shown with a selection of clear calls. Rule as the data show it: active = activity change below about -60%; inconclusive = no clear call, values can overlap the other calls; inactive = above about -39%.

Assay: qHTS Assay for inhibitors of the human cytomegalovirus (HCMV)
Conditions: HFF cells, HCMV-luciferase reporter, 72 h; at 57.5 µM; stronger effect = lower value
Outline: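 Compounds were evaluated in HFFs infected with an HCMV luciferase reporter virus (MOI 1 PFU/cell). Luciferase in lysates collected 72 h post infection served as the replication measure.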
% is scaled to controls: 0 for no effect and ±100 for the full control effect.

Row | Structure (SMILES) | activity change, negative = inhibition
1 | O=C(CNC(=O)c1ccc(Br)o1)NCC1COc2ccccc2O1 (stereo not given) | inconclusive: 0%
2 | COc1cc2cc(-c3ccc(O)cc3O)nc(C)c2cc1OC | active: -96.8%
3 | O=C(CC1CC2CCC1C2)NCCc1ccc(Cl)cc1 (stereo not given) | inactive: -12.6%
4 | CCCOc1ccc(OCCCCNC(C)CC)cc1 (stereo not given) | inactive: 10.2%
5 | CC1(C)S[C@@H]2[C@H](NC(=O)[C@H](N)c3ccccc3)C(=O)N2[C@H]1C(=O)O | inconclusive: -49.4%
6 | COc1ccc2[nH]cc(CCNC(=O)C3CCCCC3)c2c1 | inactive: -32.6%
7 | COc1ccc(NS(=O)(=O)c2ccc3c(c2)C(C(C)C)C(=O)N3)cc1 (stereo not given) | inactive: -29.4%
8 | COc1ccc(OC)c(NC(=O)CCc2nnc3ccc(N4CCC(C)CC4)nn23)c1 | inactive: -36.6%
9 | CS(=O)(=O)N(CC(=O)Nc1ccccc1C(=O)N1CCOCC1)c1ccc(F)c(Cl)c1 | inactive: -8.49%
10 | COc1cccc(NC(=O)CN(C)C(=O)C2CC(=O)N(CCc3ccc(OC)c(OC)c3)C2)c1 (stereo not given) | inactive: -12.6%
11 | CCc1nc2cccnc2n1-c1ccc(CC(=O)Nc2ccccc2Cl)cc1 | inconclusive: 0%
12 | COc1ccc(CN(Cc2nc3ccccc3c(=O)[nH]2)C(=O)NC2CCCCC2)cc1 | inconclusive: -45.8%
13 | CC(=O)N1CCSc2ccc(S(=O)(=O)NCCc3ccc(Cl)cc3)cc21 | active: -60.1%
14 | COc1ccc(C)cc1Nc1nc2ccccc2c2nnc(C)n12 | inactive: 18.4%
15 | Cc1ccc(Cc2c(-c3cccc(Cl)c3)nc3c4ccccc4ccn23)cc1 | inactive: 9.24%
16 | CC(C)CC(=O)Nc1ccc(-c2cn3cccnc3n2)cc1 | inconclusive: -44.6%
17 | O=C(NCC(c1cccs1)N1CCOCC1)c1ccccc1NS(=O)(=O)c1cccc([N+](=O)[O-])c1 (stereo not given) | inconclusive: -55.6%
18 | CC1CCCN(c2ccc(C(=O)NCc3ccco3)cc2[N+](=O)[O-])C1 (stereo not given) | inactive: -34.8%
19 | Cc1cc(CNC(=O)COC(=O)C2CC3CCCC(C2)C3=O)cc(C)c1O (stereo not given) | inconclusive: -40.5%
20 | C=CC[n+]1c(-c2ccc(C)cc2)csc1NNC(=O)Nc1ccccc1 | active: -69.2%
21 | CCN(CC)S(=O)(=O)c1cccc(C(=O)Nc2ccc(S(=O)(=O)NC3=NCCCCC3)cc2)c1 | active: -62.1%
22 | CSc1ccc(C2c3[nH]c4ccccc4c3CCN2C(=O)CCc2ccccc2)cc1 (stereo not given) | active: -79.2%
23 | Cc1nc2ccc(NC(=O)c3cccnc3)cc2s1 | inactive: -10%
24 | COc1cccc(CNC(=O)C2CCN(S(=O)(=O)c3ccc4c(ccn4C)c3)CC2)c1 | inactive: 16.9%
25 | COc1ccc(-c2cc(Cl)cc3c(=O)c4ccccc4n(C)c23)cc1F | inconclusive: -50.1%
26 | O=C(CCNS(=O)(=O)c1ccc(OC(F)(F)F)cc1)Nc1cccc(S(=O)(=O)N2CCCC2)c1 | inactive: -3.98%
27 | Cc1ccccc1Cn1cc(CCC(=O)NC(C)c2ccccc2)c2ccccc21 (stereo not given) | inconclusive: -42.3%
28 | CC(C)c1ccc(CN2CCN(C(=O)CCl)CC2)cc1 | active: -68.8%

Row | Structure (SMILES) | activity change, negative = inhibition
29 | CCOc1ccc(OCc2ccc(C(=O)N3CCCC(C)C3)cc2)cc1 (stereo not given) | inconclusive: -53%
30 | CCc1nc2ccc(C(=O)N(C)Cc3ccco3)cn2c1N(CC)Cc1cccc(Br)c1 | inactive: -12.7%
31 | COc1cccc(NC(=O)Nc2cc(NC(=O)Nc3cccc(OC)c3)c(C)nc2C)c1 | inconclusive: -40.2%
32 | COc1ccc(OC)c2nc3c(C(=O)NCCN(C)C)cccc3nc12 | active: -96.2%
33 | CC12CCC3c4ccc(OCCCO)c([N+](=O)[O-])c4CCC3C1CCC2=O (stereo not given) | inconclusive: -53%
34 | Cc1ccc(NC(=O)c2c(NC(=O)c3ccco3)sc3c2CCC(C(C)(C)C)C3)c(C)c1 (stereo not given) | inactive: -12.3%
35 | CCOc1ccc(NC(=O)CCC(=O)NNC(=O)COc2ccccc2C)cc1 | inconclusive: -40%
36 | O=C(NC1CCCC1)C(c1ccccc1)N(Cc1ccc(F)cc1)C(=O)c1csnn1 (stereo not given) | inconclusive: -53.9%
37 | O=C(CCNS(=O)(=O)c1ccccc1)OCc1nnc(-c2ccccc2)o1 | inactive: 3.49%
38 | Cc1ccc(NC(=O)CSc2nc(C)c(Cc3ccccc3)c(=O)[nH]2)cc1 | active: -63.8% and inconclusive: -43.9%
39 | CCOc1ncccc1C(=O)NC(C)CCc1ccccc1 (stereo not given) | inconclusive: -42.6%
40 | FC(F)(F)c1cccc(N2CCN(Cc3cccnc3)CC2)c1 | inconclusive: -47%
41 | C=CCSc1nnc2n(CCc3ccccc3)c(=O)c3c4c(sc3n12)COC(C)(C)C4 | inconclusive: -46.8%
42 | COc1cc(C(=O)O/N=C2/C=CC(=O)C(C)=C2C)cc(OC)c1OC | active: -105%
43 | c1ccc(-n2nnnc2NC2CCCCC2)cc1 | inconclusive: -40.1%
44 | COC(=O)c1c(C(=O)OC)c2oc3ccccc3n2c1Cl | inconclusive: -54.2%
45 | CCOc1ccc(CCNC(=O)C2CCN(c3ncnc4c3nc3n4CCCCC3)CC2)cc1 | inconclusive: -55.1%
46 | c1ccc(CCNc2nc(-c3ccccn3)nc3ccccc23)cc1 | active: -103%
47 | Nc1cc(Cl)nc(N/N=C/c2c(O)ccc3ccccc23)n1 | active: -70.7%
48 | COc1ccccc1NC(=O)CSc1n[nH]c(-c2cccnc2)n1 | inconclusive: -49%
49 | O=C(CNC(=O)c1ccccc1F)OC(C(=O)Nc1cc(C(F)(F)F)ccc1Cl)c1ccccc1 (stereo not given) | inconclusive: -40.8%
50 | COC(=O)C1(C(F)(F)F)C2C=CC(C2)N1S(=O)(=O)c1ccc(C)cc1 (stereo not given) | inconclusive: -42.2%
51 | CCCCCC(CC(=O)NO)C(=O)NC(C(=O)N1CCCC1CO)C(C)C (stereo not given) | active: -69.1%
52 | COC(=O)c1ccc(Cl)c(NC(=O)CN(c2ccc(OC)cc2)S(=O)(=O)c2ccccc2)c1 | inconclusive: -47.4%
53 | Cc1cccc(N2CCN(C(=O)c3cc(S(=O)(=O)N4CCC(C)CC4)cn3C)CC2)c1C | inconclusive: -59.8%
54 | Cc1c(C(=O)Nc2ccc3c(c2)OCCO3)sc2nc(-c3ccccc3)cn12 | active: -84.3%
55 | CC(C)(C)OC(=O)N1CCC(c2c(C(=O)NCCN3CCC(Cc4ccccc4)CC3)cnn2-c2cccc(Cl)c2)CC1 | active: -100%
